Assay results as given in publication doi:10.1101/227918.
Results are given in words; binding and its absence hold for the method and conditions named. In cells and extracts the contact can be indirect. Binding can be weak; no strength is given. Where a sequence is shown, tags or fusion partners need not be part of it.

Sequences of proteins named here, by UniProt entry; tags and fusion partners are left off. A change or cut given only in a name is not applied to a line headed by its entry.
UniProt O14672: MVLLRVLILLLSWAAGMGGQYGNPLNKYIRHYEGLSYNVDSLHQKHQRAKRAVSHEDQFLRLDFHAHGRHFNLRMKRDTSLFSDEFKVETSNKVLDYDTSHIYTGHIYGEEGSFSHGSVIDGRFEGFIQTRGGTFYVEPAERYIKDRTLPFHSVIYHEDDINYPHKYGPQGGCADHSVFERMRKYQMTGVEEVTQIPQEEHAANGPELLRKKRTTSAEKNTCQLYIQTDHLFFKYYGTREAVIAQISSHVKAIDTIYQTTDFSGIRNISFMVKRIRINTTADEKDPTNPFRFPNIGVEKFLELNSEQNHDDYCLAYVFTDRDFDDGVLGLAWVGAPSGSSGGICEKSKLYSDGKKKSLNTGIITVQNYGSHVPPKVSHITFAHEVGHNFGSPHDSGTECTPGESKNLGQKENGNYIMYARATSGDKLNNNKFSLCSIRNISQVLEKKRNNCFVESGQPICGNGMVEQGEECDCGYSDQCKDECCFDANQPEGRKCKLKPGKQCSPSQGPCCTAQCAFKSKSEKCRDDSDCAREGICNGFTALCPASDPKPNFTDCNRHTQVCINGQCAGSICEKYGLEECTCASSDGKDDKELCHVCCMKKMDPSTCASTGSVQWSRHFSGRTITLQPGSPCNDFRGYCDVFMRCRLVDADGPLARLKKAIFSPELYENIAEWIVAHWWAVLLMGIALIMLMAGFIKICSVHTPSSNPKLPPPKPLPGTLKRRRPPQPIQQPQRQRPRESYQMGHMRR

Target: T1, FLAG-tagged Tspan14 (human) (UniProt Q8NG11)
T1 sequence: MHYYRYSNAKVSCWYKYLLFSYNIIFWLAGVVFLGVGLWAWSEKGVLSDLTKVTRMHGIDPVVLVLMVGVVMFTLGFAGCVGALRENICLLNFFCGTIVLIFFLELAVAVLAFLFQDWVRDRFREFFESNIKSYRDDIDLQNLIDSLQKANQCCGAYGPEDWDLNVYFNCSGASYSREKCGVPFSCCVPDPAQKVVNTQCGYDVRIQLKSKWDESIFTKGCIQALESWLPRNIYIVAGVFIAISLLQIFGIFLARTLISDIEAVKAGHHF
Assay: co-IP

MYC-tagged ADAM10 (from UniProt O14672) (enzyme)
binding: binds
